In the assay the target is GRBC1/2 (RNA editing substrate binding complex, RESC) (Trypanosoma brucei (endogenous in procyclic T. brucei)) (UniProt B6SBL8). The assay is described as follows: co-sedimentation + native gel or EMSA.

By UniProt entry, the sequences of proteins in these tests, tags left out. Where a name states a change or a piece, a line headed by the entry shows the natural chain unless it says otherwise.
UniProt B6SBL8: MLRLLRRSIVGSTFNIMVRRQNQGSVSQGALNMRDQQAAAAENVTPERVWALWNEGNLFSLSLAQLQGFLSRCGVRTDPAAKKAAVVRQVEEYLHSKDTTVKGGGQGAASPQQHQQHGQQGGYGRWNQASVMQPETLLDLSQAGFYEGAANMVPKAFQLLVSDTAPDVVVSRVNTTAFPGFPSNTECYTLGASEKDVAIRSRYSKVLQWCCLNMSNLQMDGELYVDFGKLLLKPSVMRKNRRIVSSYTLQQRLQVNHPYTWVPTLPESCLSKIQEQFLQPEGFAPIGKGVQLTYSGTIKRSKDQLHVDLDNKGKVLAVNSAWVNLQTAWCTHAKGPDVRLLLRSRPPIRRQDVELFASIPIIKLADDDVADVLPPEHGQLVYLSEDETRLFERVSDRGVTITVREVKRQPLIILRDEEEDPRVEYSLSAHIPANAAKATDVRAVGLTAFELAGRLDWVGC
UniProt B6SBM0: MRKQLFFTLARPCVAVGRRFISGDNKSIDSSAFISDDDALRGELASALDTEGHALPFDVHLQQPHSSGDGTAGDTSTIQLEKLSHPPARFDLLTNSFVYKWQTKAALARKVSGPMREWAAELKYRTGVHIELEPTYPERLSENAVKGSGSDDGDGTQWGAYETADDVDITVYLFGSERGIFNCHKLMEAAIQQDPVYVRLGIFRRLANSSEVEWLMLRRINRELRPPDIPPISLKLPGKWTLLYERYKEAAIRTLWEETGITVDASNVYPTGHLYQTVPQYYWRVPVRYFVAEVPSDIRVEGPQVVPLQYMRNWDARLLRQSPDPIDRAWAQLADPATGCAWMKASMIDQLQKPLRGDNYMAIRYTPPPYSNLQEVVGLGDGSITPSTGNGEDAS

These are yes or no findings as the source states them, for the method shown. In cells and extracts the contact can be indirect. Some binding calls cover weakened binding; strength is not graded here.

“MERS1 NUDIX hydrolase (PPsome subunit) (from UniProt B6SBM0 1-395) (enzyme)”: the binding entry was “binds”.

These data come from publication doi:10.1101/456418.
